{
  "sequences": {"note": "Protein sequences, listed by entry. Tags and fused reporters are not part of them.", "UniProt Q03164, whole entry, looked up": "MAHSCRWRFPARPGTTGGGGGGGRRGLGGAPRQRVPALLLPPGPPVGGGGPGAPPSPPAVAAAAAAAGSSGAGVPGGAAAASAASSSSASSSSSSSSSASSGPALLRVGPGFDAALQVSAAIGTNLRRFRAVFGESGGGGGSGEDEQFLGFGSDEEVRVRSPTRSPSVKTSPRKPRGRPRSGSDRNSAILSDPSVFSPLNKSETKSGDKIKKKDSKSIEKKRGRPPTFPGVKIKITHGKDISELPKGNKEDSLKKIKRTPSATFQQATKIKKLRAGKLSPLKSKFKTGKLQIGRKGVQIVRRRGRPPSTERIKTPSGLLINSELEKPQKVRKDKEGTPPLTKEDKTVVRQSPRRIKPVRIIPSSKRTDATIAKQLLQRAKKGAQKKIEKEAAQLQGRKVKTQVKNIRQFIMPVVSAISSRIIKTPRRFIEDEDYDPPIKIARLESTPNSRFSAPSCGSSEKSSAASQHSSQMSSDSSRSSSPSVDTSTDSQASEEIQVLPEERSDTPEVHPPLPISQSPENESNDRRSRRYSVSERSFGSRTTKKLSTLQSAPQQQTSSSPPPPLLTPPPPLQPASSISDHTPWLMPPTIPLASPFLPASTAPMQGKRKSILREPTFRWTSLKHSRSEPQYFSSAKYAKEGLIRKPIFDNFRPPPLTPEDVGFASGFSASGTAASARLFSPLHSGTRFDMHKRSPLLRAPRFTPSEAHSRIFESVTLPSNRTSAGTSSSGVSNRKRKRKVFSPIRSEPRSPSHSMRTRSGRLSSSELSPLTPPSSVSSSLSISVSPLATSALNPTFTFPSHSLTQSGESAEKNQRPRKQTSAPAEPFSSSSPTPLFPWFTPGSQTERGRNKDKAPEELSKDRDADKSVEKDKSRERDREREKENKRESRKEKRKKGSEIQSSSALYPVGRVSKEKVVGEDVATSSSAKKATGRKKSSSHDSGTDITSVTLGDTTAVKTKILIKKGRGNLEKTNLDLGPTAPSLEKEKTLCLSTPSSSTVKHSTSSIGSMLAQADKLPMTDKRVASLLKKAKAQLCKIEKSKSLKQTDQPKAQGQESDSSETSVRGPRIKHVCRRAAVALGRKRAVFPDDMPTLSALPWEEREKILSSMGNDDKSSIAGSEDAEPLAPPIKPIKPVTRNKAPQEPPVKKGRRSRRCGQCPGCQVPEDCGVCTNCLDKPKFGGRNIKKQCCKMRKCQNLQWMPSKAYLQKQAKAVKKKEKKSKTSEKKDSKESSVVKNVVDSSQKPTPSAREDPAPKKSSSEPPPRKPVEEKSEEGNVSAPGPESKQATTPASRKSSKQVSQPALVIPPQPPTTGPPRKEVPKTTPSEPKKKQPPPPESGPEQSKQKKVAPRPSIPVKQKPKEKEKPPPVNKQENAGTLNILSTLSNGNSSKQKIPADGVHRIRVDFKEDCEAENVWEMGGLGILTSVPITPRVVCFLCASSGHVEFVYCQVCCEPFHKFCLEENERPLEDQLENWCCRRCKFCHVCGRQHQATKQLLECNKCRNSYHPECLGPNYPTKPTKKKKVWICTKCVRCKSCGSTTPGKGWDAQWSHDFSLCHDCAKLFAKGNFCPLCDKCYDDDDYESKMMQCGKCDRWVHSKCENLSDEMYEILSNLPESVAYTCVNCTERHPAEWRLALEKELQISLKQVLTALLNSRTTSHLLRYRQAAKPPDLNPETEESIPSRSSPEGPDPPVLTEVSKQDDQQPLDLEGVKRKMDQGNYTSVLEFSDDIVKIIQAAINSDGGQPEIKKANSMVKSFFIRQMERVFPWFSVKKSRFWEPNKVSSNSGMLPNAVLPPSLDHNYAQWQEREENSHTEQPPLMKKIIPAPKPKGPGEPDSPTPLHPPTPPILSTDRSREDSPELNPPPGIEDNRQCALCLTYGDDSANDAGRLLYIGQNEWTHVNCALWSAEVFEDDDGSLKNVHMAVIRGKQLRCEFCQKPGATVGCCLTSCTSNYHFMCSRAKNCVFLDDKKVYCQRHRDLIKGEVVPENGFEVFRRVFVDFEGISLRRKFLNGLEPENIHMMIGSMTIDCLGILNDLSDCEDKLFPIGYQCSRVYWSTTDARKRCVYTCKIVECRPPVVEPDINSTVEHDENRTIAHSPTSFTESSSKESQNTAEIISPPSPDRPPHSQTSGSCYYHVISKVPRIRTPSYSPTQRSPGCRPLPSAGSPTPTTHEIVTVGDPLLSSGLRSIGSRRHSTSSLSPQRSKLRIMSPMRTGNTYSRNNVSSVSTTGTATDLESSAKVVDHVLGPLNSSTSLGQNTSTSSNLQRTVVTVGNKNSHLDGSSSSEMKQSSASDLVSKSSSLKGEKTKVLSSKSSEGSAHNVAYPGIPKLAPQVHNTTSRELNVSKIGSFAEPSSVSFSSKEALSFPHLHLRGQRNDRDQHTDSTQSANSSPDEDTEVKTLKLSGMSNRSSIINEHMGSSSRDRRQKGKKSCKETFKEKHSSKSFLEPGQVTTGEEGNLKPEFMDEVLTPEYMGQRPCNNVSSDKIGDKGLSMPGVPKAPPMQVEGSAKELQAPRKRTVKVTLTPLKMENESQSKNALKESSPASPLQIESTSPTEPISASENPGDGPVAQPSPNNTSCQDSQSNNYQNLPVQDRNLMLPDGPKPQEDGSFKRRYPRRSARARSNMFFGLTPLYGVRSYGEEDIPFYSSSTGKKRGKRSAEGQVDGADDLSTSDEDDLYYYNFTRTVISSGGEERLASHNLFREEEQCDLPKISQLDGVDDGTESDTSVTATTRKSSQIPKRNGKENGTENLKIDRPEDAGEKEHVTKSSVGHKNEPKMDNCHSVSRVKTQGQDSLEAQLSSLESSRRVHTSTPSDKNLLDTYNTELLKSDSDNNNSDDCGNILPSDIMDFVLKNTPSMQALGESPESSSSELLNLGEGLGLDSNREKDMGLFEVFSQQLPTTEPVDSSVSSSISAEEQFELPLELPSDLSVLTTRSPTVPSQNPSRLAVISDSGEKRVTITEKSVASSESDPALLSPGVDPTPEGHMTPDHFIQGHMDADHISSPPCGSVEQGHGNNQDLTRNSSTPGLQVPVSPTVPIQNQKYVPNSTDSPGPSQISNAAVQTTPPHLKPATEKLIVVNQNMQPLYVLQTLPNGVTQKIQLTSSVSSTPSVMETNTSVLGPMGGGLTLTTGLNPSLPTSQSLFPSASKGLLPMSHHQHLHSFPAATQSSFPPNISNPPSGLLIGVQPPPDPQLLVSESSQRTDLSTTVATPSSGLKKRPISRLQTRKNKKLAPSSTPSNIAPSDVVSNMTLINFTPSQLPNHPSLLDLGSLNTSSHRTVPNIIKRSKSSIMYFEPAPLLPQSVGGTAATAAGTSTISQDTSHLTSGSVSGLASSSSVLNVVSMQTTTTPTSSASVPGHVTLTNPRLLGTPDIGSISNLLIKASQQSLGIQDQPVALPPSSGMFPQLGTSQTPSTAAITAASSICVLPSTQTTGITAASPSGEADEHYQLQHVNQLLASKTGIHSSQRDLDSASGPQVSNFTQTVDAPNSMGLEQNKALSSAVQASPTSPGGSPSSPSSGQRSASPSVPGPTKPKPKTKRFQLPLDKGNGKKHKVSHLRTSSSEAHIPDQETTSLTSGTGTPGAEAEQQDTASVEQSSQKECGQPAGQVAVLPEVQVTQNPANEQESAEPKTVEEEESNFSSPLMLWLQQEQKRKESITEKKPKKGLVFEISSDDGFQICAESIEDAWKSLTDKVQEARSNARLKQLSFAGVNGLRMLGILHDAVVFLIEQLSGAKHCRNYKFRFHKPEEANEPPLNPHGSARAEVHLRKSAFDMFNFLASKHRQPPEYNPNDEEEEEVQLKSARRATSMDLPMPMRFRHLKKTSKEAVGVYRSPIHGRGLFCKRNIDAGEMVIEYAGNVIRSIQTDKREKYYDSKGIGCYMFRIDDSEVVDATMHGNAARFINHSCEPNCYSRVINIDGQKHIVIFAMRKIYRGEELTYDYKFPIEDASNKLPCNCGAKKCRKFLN"},
  "source": "PubChem BioAssay AID2662",
  "about": "(National Center for Advancing Translational Sciences (NCATS), 2010)",
  "note": "In all, about 290,000 compounds went through this assay and about 110 (0.038%) were called active. This list was built around the results that the source calls inconclusive (neither active nor inactive); the mix of calls is not that of the screen. Calls come from the whole dose curve; as a rule, active = well fitted inhibition curve with a large enough effect in the polarisation, with a control signal flat (not every such curve was filed as active); inconclusive = small, poorly fitted or top-dose-only effect, or effect the other way, or a change in a side signal; inactive = no such curve, though single readings can be large or run the other way; the % refers to the polarisation. A potency beside an inconclusive call is a rough fit, not a confirmed value. A note “side channel” means that the fit belongs to a control or component signal, not to the main read-out. Potency is the fitted concentration of half-maximal effect.",
  "data": [
    {"target": "Histone-lysine N-methyltransferase 2A (Homo sapiens) (UniProt Q03164)", "test": "qHTS Fluorescence Polarization Assay for Inhibitors of MLL CXXC domain - DNA interaction", "details": "MLL-CXXC / FITC-HOXA9 DNA fluorescence polarization; series mostly up to 115 µM", "how_it_was_run": "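Purified MLL-CXXC (added from a 7 uM solution) was preincubated 5 min at ambient with pinned compounds in 50 mM Tris-HCl pH 7.5, 50 mM NaCl, 1 mM DTT, 0.05% BSA. Fluorescein-labeled HOX-A9 DNA (50 nM solution) followed, 30 min, then polarization read.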", "values": [
      {"smiles": "O=S(=O)(Nc1cccc(S(=O)(=O)N2CCOCC2)c1)c1ccc2c(c1)OCCO2", "Potency": "inconclusive: 1.58 µM [fluorescent, side channel, full curve]"},
      {"smiles": "Cc1ccc2cc(C=C(C#N)C#N)c(N3CCCCC3)nc2c1", "Potency": "inconclusive: 63.1 µM [inhibitor, single point]"},
      {"smiles": "CC1(C)Cc2nc3sc4c(N(CCO)CCO)nnnc4c3cc2CO1", "Potency": "inactive"},
      {"smiles": "Cc1cc([N+](=O)[O-])ccc1NC(=O)CCC(=O)N1CCCCCC1", "Potency": "inconclusive: 8.91 µM [fluorescent, side channel, single point]"},
      {"smiles": "CCCN1C(=O)S/C(=C\\c2ccc(N3CCOCC3)cc2C)C1=O", "Potency": "inconclusive: 35.5 µM [fluorescent, side channel, single point]"},
      {"smiles": "c1ccc(CNc2c3ccccc3nc3ccccc23)cc1", "Potency": "inconclusive: 63.1 µM [fluorescent, side channel, single point]"},
      {"smiles": "CCOc1ccc(S(=O)(=O)Nc2cc(SCC(=O)O)c(O)c3ccccc23)cc1", "Potency": "inconclusive: 31.6 µM [inhibitor, single point]"},
      {"smiles": "CCN(CC)CCN(C(=O)CCS(=O)(=O)c1ccccc1)c1nc2cc3c(cc2s1)OCO3", "Potency": "inconclusive: 17.8 µM [fluorescent, side channel, partial curve]"},
      {"smiles": "NC(=O)c1cc2ccc(O)cc2oc1=NCc1ccccc1", "Potency": "inconclusive: 35.5 µM [fluorescent, side channel, partial curve]"},
      {"smiles": "O=C(CSc1n[nH]c(-c2ccncc2)n1)NC1CCS(=O)(=O)C1", "note": "(stereo not drawn)", "Potency": "inactive"},
      {"smiles": "CC(=O)c1ccc([N+](=O)[O-])c(CS(=O)(=O)c2ccc(Cl)cc2)c1", "Potency": "inconclusive: 11.2 µM [inhibitor, single point]"},
      {"smiles": "CCOc1ccc(C(C(=O)NC2CCCC2)N(Cc2ccccc2)C(=O)c2nsc(Cl)c2Cl)cc1", "note": "(stereo not drawn)", "Potency": "inconclusive: 1.41 µM [quencher, side channel, partial curve, poor fit]"},
      {"smiles": "COc1ccc(C[C@H]2CN3C(=NC[C@@H]3Cc3ccc(O)cc3)N2CCNC(=O)c2ccc(C)c(Br)c2)cc1", "Potency": "inconclusive: 31.6 µM [quencher, side channel, partial curve, poor fit]"},
      {"smiles": "COc1ccc(O)c(C=NCC(C)N=Cc2cc(OC)ccc2O)c1", "note": "(stereo not drawn)", "Potency": "inconclusive: 7.08 µM [fluorescent, side channel, full curve]"},
      {"smiles": "N#CC1=C(N)SC(N)=C(C#N)C1Cc1ccccc1", "Potency": "inconclusive: 44.7 µM [fluorescent, side channel, partial curve]"},
      {"smiles": "CCOC(=O)Cn1c(=N)n(CCOc2ccc3ccccc3c2)c2ccccc21", "Potency": "inconclusive: 11.2 µM [quencher, side channel, partial curve]"},
      {"smiles": "COC(=O)C1=C(C(=O)OC)[C@@H]2Nc3ccccc3[C@@]23C[C@@H](C(=O)OC)N(C(=O)c2ccc(Br)cc2)C3=N1", "Potency": "inactive"},
      {"smiles": "COc1ccc(/C=C2\\C(=O)ON=C2c2ccccc2)cc1", "Potency": "inactive"},
      {"smiles": "Cn1c(-c2ccc3c(c2)OCO3)cnc1NCc1ccc(Cl)cc1", "Potency": "inconclusive: 28.2 µM [quencher, side channel, partial curve]"},
      {"smiles": "CCN(Cc1cnn(C)c1)C(=O)c1cc(COc2ccc(F)cc2F)on1", "Potency": "inconclusive: 112 µM [inhibitor, partial curve, poor fit]"},
      {"smiles": "COc1ccc(CCC(=O)NCCOc2ccc(C)cc2)cc1", "Potency": "inconclusive: 28.2 µM [fluorescent, side channel, partial curve]"},
      {"smiles": "CCOC(=O)CCc1c(C)c2ccc(OCC(=O)N3CCOCC3)c(C)c2oc1=O", "Potency": "inactive"},
      {"smiles": "C=CCn1cccc(C(=O)Nc2ccc(N(C)C)cc2)c1=O", "Potency": "inconclusive: 14.1 µM [inhibitor, single point]"},
      {"smiles": "CC(C)CN1CCN(Cc2ccc(C#CC(C)(C)O)cc2)CC1CCO", "note": "(stereo not drawn)", "Potency": "inconclusive: 89.1 µM [inhibitor, single point]"},
      {"smiles": "COc1cccc(C(=O)/C=C/Nc2cc(C)ccc2O)c1", "Potency": "inactive"},
      {"smiles": "N#Cc1cccc(NC(=O)CSc2ccc3c4c(cccc24)C(=O)c2ccccc2-3)c1", "Potency": "inconclusive: 20 µM [fluorescent, side channel, partial curve]"},
      {"smiles": "O=C(Cc1cccc2ccccc12)NCC(=O)Nc1ccccc1F", "Potency": "inconclusive: 14.1 µM [fluorescent, side channel, single point]"},
      {"smiles": "CCOC(=O)c1c(-c2ccccc2)csc1NC(=O)/C(C#N)=C/c1ccc(O)c(OC)c1", "Potency": "inconclusive: 5.01 µM [fluorescent, side channel, partial curve]"},
      {"smiles": "O=C(O)COc1ccccc1-c1nc(-c2ccccc2)c(-c2ccccc2)[nH]1", "Potency": "inactive"},
      {"smiles": "COc1ccc(C(=O)/C(C#N)=N/Nc2ccccc2[N+](=O)[O-])cc1", "Potency": "inactive"},
      {"smiles": "Fc1cccc(NC(=S)NCc2cccnc2)c1", "Potency": "inconclusive: 2.82 µM [fluorescent, side channel, full curve]"},
      {"smiles": "COc1ccc(Nc2nc(N)c(C(=O)c3ccc(F)cc3)s2)cc1", "Potency": "inconclusive: 8.91 µM [inhibitor, single point]"},
      {"smiles": "C=CCN1C(=O)/C(=C/c2ccc(N(C)C)cc2)S/C1=N\\c1nnc(CC)s1", "Potency": "inconclusive: 31.6 µM [fluorescent, side channel, partial curve]"},
      {"smiles": "O=S(=O)(Cc1ccccc1)N1CCc2ccccc21", "Potency": "inconclusive: 35.5 µM [fluorescent, side channel, single point]"},
      {"smiles": "CCN(CC)CCNC(=O)c1ccc(NC(=O)c2ccc3c(c2)CCC3)cc1", "Potency": "inconclusive: 22.4 µM [fluorescent, side channel, partial curve]"},
      {"smiles": "CN(Cc1ccccc1)C(=O)CN(C)S(=O)(=O)c1ccc(F)cc1", "Potency": "inconclusive: 35.5 µM [fluorescent, side channel, single point]"},
      {"smiles": "COc1cc(/C=N/NC(=O)c2ccncc2)ccc1Oc1ccc([N+](=O)[O-])cn1", "Potency": "inactive"},
      {"smiles": "Cc1cccc(N2CCN(C(=O)c3ccc(CS(=O)Cc4ccc(Cl)cc4)o3)CC2)c1C", "note": "(stereo not drawn)", "Potency": "inconclusive: 31.6 µM [quencher, side channel, partial curve, poor fit]"}
    ]}
  ]
}
